Results are given in words; binding and its absence hold for the method and conditions named. In cells and extracts the contact can be indirect. A result given as binding can be weak or reduced; the word gives no strength. Sequences can lack the tags named with a protein.

Consider one substance from publication doi:10.1101/2022.01.11.475884 (bioRxiv, 2022).

The target in this assay is T1, Flag-TAK1 (UniProt O43318).
T1 sequence: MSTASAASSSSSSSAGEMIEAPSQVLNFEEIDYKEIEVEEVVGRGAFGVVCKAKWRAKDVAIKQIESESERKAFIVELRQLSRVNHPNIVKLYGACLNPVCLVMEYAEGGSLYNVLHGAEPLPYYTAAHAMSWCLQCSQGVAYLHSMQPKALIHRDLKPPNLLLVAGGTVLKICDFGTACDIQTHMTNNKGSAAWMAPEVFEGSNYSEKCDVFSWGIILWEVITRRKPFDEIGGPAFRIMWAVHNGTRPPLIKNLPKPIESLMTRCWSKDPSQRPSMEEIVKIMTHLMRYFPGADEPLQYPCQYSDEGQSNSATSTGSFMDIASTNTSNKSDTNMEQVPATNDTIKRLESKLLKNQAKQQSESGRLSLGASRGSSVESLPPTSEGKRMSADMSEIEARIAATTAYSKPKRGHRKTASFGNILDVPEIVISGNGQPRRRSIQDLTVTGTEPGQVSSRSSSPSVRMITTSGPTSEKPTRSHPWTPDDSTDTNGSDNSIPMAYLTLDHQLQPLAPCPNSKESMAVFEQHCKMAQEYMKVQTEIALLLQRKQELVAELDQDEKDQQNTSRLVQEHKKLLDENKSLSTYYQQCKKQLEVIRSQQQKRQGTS
Briefly: co-IP.

As for Myc-Mfn2^ΔCT (domain or fragment), the binding result is recorded as “binds”.
